The values that follow come from the supplement of paper PMC11098740.

The chains behind the UniProt entries cited, without tags or fusion partners.
UniProt O14980, whole entry: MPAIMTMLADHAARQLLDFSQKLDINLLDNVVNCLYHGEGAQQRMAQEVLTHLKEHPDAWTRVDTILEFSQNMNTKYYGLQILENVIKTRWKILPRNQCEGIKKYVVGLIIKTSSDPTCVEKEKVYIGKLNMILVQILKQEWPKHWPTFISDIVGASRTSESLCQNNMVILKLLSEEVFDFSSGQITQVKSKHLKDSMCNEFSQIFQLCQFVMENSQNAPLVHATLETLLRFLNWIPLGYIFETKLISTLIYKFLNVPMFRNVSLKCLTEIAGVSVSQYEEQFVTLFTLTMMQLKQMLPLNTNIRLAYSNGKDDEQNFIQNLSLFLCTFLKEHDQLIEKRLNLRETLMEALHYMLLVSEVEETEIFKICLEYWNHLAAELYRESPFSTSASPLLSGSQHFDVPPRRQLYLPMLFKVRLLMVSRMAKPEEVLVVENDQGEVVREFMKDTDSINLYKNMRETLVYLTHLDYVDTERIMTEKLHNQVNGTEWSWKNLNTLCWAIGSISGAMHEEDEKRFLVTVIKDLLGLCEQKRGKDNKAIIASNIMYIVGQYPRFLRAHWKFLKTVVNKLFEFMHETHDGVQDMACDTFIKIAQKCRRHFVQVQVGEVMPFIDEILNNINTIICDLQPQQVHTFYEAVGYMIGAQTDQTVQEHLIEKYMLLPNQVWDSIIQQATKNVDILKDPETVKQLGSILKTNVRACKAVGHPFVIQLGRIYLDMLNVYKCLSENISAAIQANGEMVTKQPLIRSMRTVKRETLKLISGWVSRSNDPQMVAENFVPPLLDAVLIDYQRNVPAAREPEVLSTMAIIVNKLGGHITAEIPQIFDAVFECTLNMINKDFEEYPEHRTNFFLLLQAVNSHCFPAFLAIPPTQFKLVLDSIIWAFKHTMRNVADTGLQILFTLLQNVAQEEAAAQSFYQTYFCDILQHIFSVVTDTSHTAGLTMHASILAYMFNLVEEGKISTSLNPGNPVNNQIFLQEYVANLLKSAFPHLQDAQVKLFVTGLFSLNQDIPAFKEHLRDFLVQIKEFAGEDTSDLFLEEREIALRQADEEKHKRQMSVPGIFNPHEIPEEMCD

Molecules are shown by their SMILES. Where a name gives a salt, the structure may show the parent alone. ± gives the standard deviation of the averaged measurements. The list shows a part of the results. Single values are uncertain, as repeats are few or missing.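 The assay uses a mixed pool of 41 HAP1 clones in which 61 cancer-associated proteins bear intron-inserted fluorescent tags, and clones are distinguished by image pattern. Results are compared against DMSO-treated control wells, and the BRD4 degrader dBET6 is the positive control.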

The test addresses XPO1 (intron 15 mScarlet tag, HAP1) (UniProt O14980). As to the kind of experiment: XPO1 fluorescence intensity change vs DMSO (log2 fold change); higher = more XPO1 protein. The conditions noted are these: 6 h.
Consider `CCc1c2c(nc3ccc(O)cc13)-c1cc3c(c(=O)n1C2)COC(=O)[C@]3(O)CC` [7-Ethyl-10-Hydroxy-Camptothecin] (10 µM), for which the “XPO1 fluorescence intensity change (log2)” value is 0.0555.
In the case of `CC12CC3CC(C)(C1)CC(N)(C3)C2` [Memantine] (9.99939 µM) it was 0.0602; in that of `CC[C@H]1OC(=O)[C@H](C)[C@@H](O[C@H]2C[C@@](C)(OC)[C@@H](O)[C@H](C)O2)[C@H](C)[C@@H](O[C@@H]2O[C@H](C)C[C@H](N(C)C)[C@H]2O)[C@](C)(O)C[C@@H](C)CN(C)[C@H](C)[C@@H](O)[C@]1(C)O` [Azithromycin] (10.0002 µM), -0.022.
The figure for `Nc1ncn([C@@H]2O[C@H](CO)[C@@H](O)[C@H]2O)c(=O)n1` [Azacitidine] (10 µM) is -0.226.
Regarding `CN[C@@H]1C[C@H]2O[C@@](C)([C@@H]1OC)n1c3ccccc3c3c4c(c5c6ccccc6n2c5c31)C(=O)N[C@H]4O` [UCN-01 (7-hydroxystaurosporine)] (10 µM), the “XPO1 fluorescence intensity change (log2)” value was -0.116.
In the case of `CC(C)NCC(O)COc1ccc(CC(N)=O)cc1` (centres undefined) [Atenolol] (10 µM) it was 0.123; in that of `O=c1[nH]cc(F)c(=O)[nH]1` [5-Fluorouracil] (20 µM), -0.0643.
The figure for `CCC(CC)O[C@@H]1C=C(C(=O)O)C[C@H](N)[C@H]1NC(C)=O` [Oseltamivir Acid] (10 µM) is 0.152; for `Cc1c(OCC(F)(F)F)ccnc1C[S+]([O-])c1nc2ccccc2[nH]1` (centres undefined) [Lansoprazole] (10 µM) it is 0.0685; for `Clc1ccc(C(c2ccccc2Cl)C(Cl)Cl)cc1` (centres undefined) [Mitotane] (10 µM) it is -0.26.
In the case of `CS(=O)(=O)CCNCc1ccc(-c2ccc3ncnc(Nc4ccc(OCc5cccc(F)c5)c(Cl)c4)c3c2)o1` [Lapatinib] (20 µM) it was 0.113; in that of `CO[C@H]1/C=C/O[C@@]2(C)Oc3c(C)c(O)c4c(c3C2=O)C2=NC3(CCN(CC(C)C)CC3)NC2=C(NC(=O)/C(C)=C\C=C\[C@H](C)[C@H](O)[C@@H](C)[C@@H](O)[C@@H](C)[C@H](OC(C)=O)[C@@H]1C)C4=O` [Rifabutin] (9.99925 µM), -0.0963; in that of `CC(=O)Nc1nnc(S(N)(=O)=O)s1` [Acetazolamide] (10 µM), -0.0928.
As to `CCS(=O)(=O)CCn1c([N+](=O)[O-])cnc1C` [Tinidazole] (10 µM), the “XPO1 fluorescence intensity change (log2)” value is -0.107.
The figure for `CC1(C)CNc2cc(NC(=O)c3cccnc3NCc3ccncc3)ccc21` [Motesanib] (10 µM) is -0.0499; for `C[C@]1(c2nc3c(C(N)=O)cccc3[nH]2)CCCN1` [Veliparib] (10 µM) it is 0.0346.
In the case of `NC(=O)OCC(COC(N)=O)c1ccccc1` [Felbamate] (10 µM) it was -0.00118.
In the case of `Nc1nc(Cl)nc2c1ncn2[C@@H]1O[C@H](CO)[C@@H](O)[C@@H]1F` [Clofarabine] (0.1 µM) it was -0.0733 ± 0.076; in that of `Cc1nc(=O)c2cc(CN(C)c3ccc(C(=O)N[C@@H](CCC(=O)O)C(=O)O)s3)ccc2[nH]1` [Raltitrexed] (20 µM), -0.0568.
For the compound `Nc1nc(N)c2nc(-c3ccccc3)c(N)nc2n1` [Triamterene] (9.99945 µM), the “XPO1 fluorescence intensity change (log2)” value amounted to 0.0341.
In the case of `O=C(O)c1cnccn1` [Pyrazinoic Acid] (10 µM) it was -0.00788.
The figure for `CC[C@]1(O)C[C@@H]2CN(CCc3c([nH]c4ccccc34)[C@@](C(=O)OC)(c3cc4c(cc3OC)N(C)[C@H]3[C@@](O)(C(N)=O)[C@H](O)[C@]5(CC)C=CCN6CC[C@]43[C@@H]65)C2)C1` [Vindesine sulfate] (10 µM) is -0.0158.
Consider `C1=N/C2=N/c3ccc(OCCN4CCCC4)c(c3)COC/C=C/COCc3cccc(c3)C(=C1)N2` [Pacritinib] (10 µM), for which the “XPO1 fluorescence intensity change (log2)” value was -0.234.
In the case of `CCC(=C/[C@H](C)C/C=C/C(C)=C/[C@@H](C)C(=O)[C@@H](C)[C@H](O)[C@@H](C)C/C(C)=C/C(=O)O)/C=C/[C@@H]1OC(=O)C=C[C@@H]1C` [Leptomycin B] (0.01 µM), the “XPO1 fluorescence intensity change (log2)” value was -0.219.
In the case of `CCCS(=O)(=O)Nc1ccc(F)c(C(=O)c2c[nH]c3ncc(-c4ccc(Cl)cc4)cc23)c1F` [Vemurafenib] (20 µM) it was 0.0112; in that of `O=C1Nc2ccc(Cl)cc2[C@@](C#CC2CC2)(C(F)(F)F)O1` [Efavirenz] (10 µM), 0.037; in that of `CC(C)NC[C@@H](C(=O)N1CCN(c2ncnc3c2[C@H](C)C[C@H]3O)CC1)c1ccc(Cl)cc1` [Ipatasertib dihydrochloride] (20 µM), -0.0233.
In the case of `COc1cc2/c(=N/c3ccc(Br)cc3F)nc[nH]c2cc1OCC1CCN(C)CC1` [Vandetanib] (20 µM) it was 0.198.
In the case of `Cc1ncsc1-c1ccc(CNC(=O)[C@@H]2C[C@@H](O)CN2C(=O)[C@@H](NC(=O)C2(F)CC2)C(C)(C)C)c(OCCOc2ccc(CN3CCN(c4cc(-c5ccccc5O)nnc4N)CC3)cc2)c1` (0.1 µM) it was -0.00285; in that of `CC(=O)Oc1ccccc1C(=O)Nc1ncc([N+](=O)[O-])s1` [Nitazoxanide] (10 µM), 0.074.
With `Cc1ccc(NC(=O)c2ccc(CN3CC[C@H](N(C)C)C3)c(C(F)(F)F)c2)cc1Nc1nccc(-c2cncnc2)n1` [Bafetinib] (10 µM), the “XPO1 fluorescence intensity change (log2)” value was determined as 0.0697.
The figure for `CCCC(CCC)C(=O)O` [Valproic Acid] (10 µM) is 0.134; for `Cc1nc(-c2ccc(OCC(C)C)c(C#N)c2)sc1C(=O)O` [Febuxostat] (10 µM) it is -0.000336; for `COc1c(OCCCN2CCOCC2)ccc2c1N=C(NC(=O)c1cnc(N)nc1)N1CCN=C21` [Copanlisib] (10 µM) it is 0.145.
In the case of `O=C1C(O)=C([C@H]2CC[C@H](c3ccc(Cl)cc3)CC2)C(=O)c2ccccc21` [Atovaquone] (10 µM) it was 0.00408.
In the case of `Nc1nc2ccc(OC(F)(F)F)cc2s1` [Riluzole] (10.0074 µM) it was -0.00625; in that of `C[C@H](N[C@@H](CCc1ccccc1)C(=O)O)C(=O)N1CCC[C@H]1C(=O)O` [Enalaprilat] (9.99909 µM), -0.0619.
Turning to `CCN(CC)C(=O)/C(C#N)=C/c1cc(O)c(O)c([N+](=O)[O-])c1` [Entacapone] (10 µM), the “XPO1 fluorescence intensity change (log2)” value is -0.00924.
The figure for `COC(=O)Nc1nc2cc(C(=O)c3ccccc3)ccc2[nH]1` [Mebendazole] (9.99917 µM) is -0.141.
